Experiment [1] addresses T1, VANG2_05 (short peptide of Vang-like protein 2: GSGAG and the last five residues) (human).
T1 sequence (peptide, biotin at N-terminus): GSGAGSETSV
Briefly: SPR; both purified. (In SPR one partner is held on a chip, and binding of the other changes the refractive index at the surface.)

Protein sequences, listed by entry. Tags and fused reporters are not part of them. Residues count along the entry.
MAGI1-2/6 (MBP fusion of the second of the six PDZ domains of MAGI1) (Q6RHR9, residues 448-572): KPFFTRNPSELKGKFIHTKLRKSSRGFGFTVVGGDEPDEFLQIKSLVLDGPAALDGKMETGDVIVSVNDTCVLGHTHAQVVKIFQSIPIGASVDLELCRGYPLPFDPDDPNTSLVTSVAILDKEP
MAGI1-3/6 (MBP fusion of the third of the six PDZ domains of MAGI1) (Q6RHR9, residues 613-752): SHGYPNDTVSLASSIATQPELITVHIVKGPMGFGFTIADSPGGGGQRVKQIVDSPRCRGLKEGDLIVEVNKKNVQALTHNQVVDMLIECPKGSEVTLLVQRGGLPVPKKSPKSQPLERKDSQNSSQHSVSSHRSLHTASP
SCRIB-34/4 (MBP fusion of the tandem of the third and fourth PDZ domains of SCRIB) (Q14160, residues 997-1193): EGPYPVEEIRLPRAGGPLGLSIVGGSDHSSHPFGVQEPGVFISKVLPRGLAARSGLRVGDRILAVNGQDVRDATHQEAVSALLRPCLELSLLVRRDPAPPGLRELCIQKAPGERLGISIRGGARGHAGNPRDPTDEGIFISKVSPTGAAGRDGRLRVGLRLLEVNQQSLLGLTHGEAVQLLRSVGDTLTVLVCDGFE
SCRIB-4/4 (MBP fusion of the fourth of the four PDZ domains of SCRIB) (Q14160, residues 1097-1193): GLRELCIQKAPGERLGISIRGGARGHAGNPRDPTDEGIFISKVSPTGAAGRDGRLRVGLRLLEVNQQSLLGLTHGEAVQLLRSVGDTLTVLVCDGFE

Experiment [2] has as its target T2, TAX1_10 (long peptide of the Trans-activating transcriptional regulatory protein of HTLV-1: the last ten residues) (HTLV-1A).
T2 sequence (peptide, biotin at N-terminus): SEKHFRETEV
Briefly: SPR; both purified.

These are yes or no findings as the source states them, for the method shown. Some results given as binding are weak or reduced against the parent protein; the word gives no strength.

Take “MAGI1-2/6 (MBP fusion of the second of the six PDZ domains of MAGI1) (from UniProt Q6RHR9-1 448-572) (domain or fragment)”: the binding result in experiment [1] is reported as “no binding (tested: 10 µM (analyte injected up to 30 µM))”.
As to “MAGI1-3/6 (MBP fusion of the third of the six PDZ domains of MAGI1) (from UniProt Q6RHR9-1 613-752) (domain or fragment)”, in experiment [1], the binding entry is recorded as “no binding (tested: 10 µM (analyte injected up to 30 µM))”.
For “SCRIB-4/4 (MBP fusion of the fourth of the four PDZ domains of SCRIB) (from UniProt Q14160-1 1097-1193) (domain or fragment)”, the binding result in experiment [1] is “no binding (tested: 10 µM (analyte injected up to 30 µM))”.
In the case of “SCRIB-34/4 (MBP fusion of the tandem of the third and fourth PDZ domains of SCRIB) (from UniProt Q14160-1 997-1193) (domain or fragment)”, the binding result in experiment [2] is on record as “binds”.

The record behind these values is PMC3206016, “Putting into Practice Domain-Linear Motif Interaction Predictions for Exploration of Protein Networks” (PLoS ONE, 2011).
